# Assay results as given in PubChem BioAssay (EPA / NIEHS).
# Sequences of proteins named here, by UniProt entry; tags and fusion partners are left off. A change or cut given only in a name is not applied to a line headed by its entry.
# UniProt P19793: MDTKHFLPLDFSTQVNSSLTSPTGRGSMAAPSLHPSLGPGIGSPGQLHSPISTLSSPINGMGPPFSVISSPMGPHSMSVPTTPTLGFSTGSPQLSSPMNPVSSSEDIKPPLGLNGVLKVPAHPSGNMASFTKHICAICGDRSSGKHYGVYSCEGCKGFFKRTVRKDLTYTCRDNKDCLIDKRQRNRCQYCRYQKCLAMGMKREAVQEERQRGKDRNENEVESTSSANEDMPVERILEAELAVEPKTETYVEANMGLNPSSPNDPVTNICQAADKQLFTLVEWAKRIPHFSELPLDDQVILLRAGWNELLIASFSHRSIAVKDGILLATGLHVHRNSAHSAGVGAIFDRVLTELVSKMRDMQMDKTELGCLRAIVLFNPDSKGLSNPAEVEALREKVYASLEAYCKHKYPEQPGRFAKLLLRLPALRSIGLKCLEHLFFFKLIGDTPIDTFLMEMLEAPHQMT
# UniProt P04637, whole entry, looked up: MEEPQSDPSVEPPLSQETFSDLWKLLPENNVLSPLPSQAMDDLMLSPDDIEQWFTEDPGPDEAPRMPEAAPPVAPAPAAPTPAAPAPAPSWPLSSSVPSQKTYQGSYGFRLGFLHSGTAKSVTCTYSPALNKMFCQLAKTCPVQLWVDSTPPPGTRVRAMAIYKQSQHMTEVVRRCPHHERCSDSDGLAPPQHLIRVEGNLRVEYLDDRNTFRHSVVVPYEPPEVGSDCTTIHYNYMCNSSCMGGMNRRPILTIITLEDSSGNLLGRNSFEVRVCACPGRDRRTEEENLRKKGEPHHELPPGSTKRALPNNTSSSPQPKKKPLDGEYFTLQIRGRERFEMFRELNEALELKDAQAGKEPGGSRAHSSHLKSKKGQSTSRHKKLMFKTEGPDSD
# Values joined by “and” are separate entries in the source; they are usually repeats but may differ in a detail not shown here. Identical values can stand only once. Inconclusive results, whose numbers are uncertain, are shown with a selection of clear calls. For some assays here: A potency beside an inconclusive call is a rough fit, not a confirmed value. Some compounds were tested as several samples or in several runs, with calls that do not always agree. Active and inactive are the calls of the source. How the source made its calls: active means hit-call score of the fitted dose curve at least 0.9, where 1 is the maximum; inconclusive means response in the unintended direction; inactive means score below 0.9.
# How the values were obtained:
# [1] = target: Retinoic acid receptor RXR-alpha (Homo sapiens) (UniProt P19793); assay: OT_NURR1_NURR1RXRa_0480: Odyssey Thera (OT) 8-hour HEK293T Protein Complementation Assay for Nurr1/retinoid X receptor (RXR) (AID 2283385)
# In short: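 HEK293T cells expressing Nurr1 and RXRα fused to reporter fragments were dosed with compound for 8 hours. Complex formation was read as fluorescence intensity and analysed as gain of signal against DMSO as baseline.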
# [2] = TOX21_p53_BLA_p2_viability: Viability Assessment in the Tox21 HCT-116 p53 Agonism Beta-lactamase Assay, Phase 2 (AID 2283591);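 further: compound exposure lasted 16 h at 37 °C; actives lower the ATP signal meaning cytotoxicity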
# In short: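 HCT116 p53-bla cells, 4000/well, dosed after 5 h plating (217-fold dilution of DMSO stocks) and incubated 16 h at 37C. Viability taken as cellular ATP by CellTiter-Glo luminescence after 30 min RT; signal loss marks cytotoxicity.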
# [3] = target: Cellular tumor antigen p53 (Homo sapiens) (UniProt P04637); assay: TOX21_p53_BLA_p2_ratio: Tox21 HCT-116 p53 Agonism Beta-lactamase Assay, Ratio, Phase 2 (AID 2283592)
# In short: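 Gain-of-signal p53 agonism was scored from the beta-lactamase FRET ratio (460/530 nm, 405 nm excitation) in HCT116 cells treated 16 h at 37C, 5% CO2, with DMSO serving as negative control and baseline.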
# [4] = TOX21_p53_BLA_p3_viability: Viability Assessment in the Tox21 HCT-116 p53 Agonism Beta-lactamase Assay, Phase 3 (AID 2283593);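 further: cells exposed to compound for 16 h before reading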
# In short: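 HCT116 cells, 4000/well, dosed 5 h after plating by pin transfer (217-fold dilution from DMSO stock) and incubated 16 h at 37C, 5% CO2. Viability read as ATP luminescence with CellTiter-Glo after 30 min at room temperature.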
# [5] = target: Cellular tumor antigen p53 (Homo sapiens) (UniProt P04637); assay: TOX21_p53_BLA_p3_ratio: Tox21 HCT-116 p53 Agonism Beta-lactamase Assay, Ratio, Phase 3 (AID 2283596)
# In short: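 HCT116 p53-bla cells (4000/well) given compound in DMSO (217-fold dilution) after 5 h, incubated 16 h at 37C. CCF4-AM substrate 2 h at room temperature; 460/530 nm emission ratio, gain fitted against DMSO.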
# [6] = target: Cellular tumor antigen p53 (Homo sapiens) (UniProt P04637); assay: TOX21_p53_BLA_p5_ratio: Tox21 HCT-116 p53 Agonism Beta-lactamase Assay, Ratio, Phase 5 (AID 2283599)
# In short: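 HCT-116 p53-bla cells (4000/well) plated 5 h, dosed with compound (217-fold DMSO dilution) for 16 h at 37 C; CCF4-AM substrate 2 h at room temperature. Activity is the 460/530 nm emission ratio (405 nm excitation), fitted in gain-of-signal direction versus DMSO.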
# [7] = TOX21_p53_BLA_p5_viability: Viability Assessment in the Tox21 HCT-116 p53 Agonism Beta-lactamase Assay, Phase 5 (AID 2283600)
# In short: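 After the 460/530 nm beta-lactamase measurement, the wells received an ATP-detection luciferase reagent; signal was read 30 min later at RT. Compound treatment lasted 16 h on cells pre-incubated 5 h post-seeding.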
# [8] = target: Cellular tumor antigen p53 (Homo sapiens) (UniProt P04637); assay: TOX21_p53_BLA_p4_ratio: Tox21 HCT-116 p53 Agonism Beta-lactamase Assay, Ratio, Phase 4 (AID 2283601)
# In short: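 HCT-116 p53 beta-lactamase reporter cells (4000/well) preincubated 5 h, then compound (217-fold dilution of DMSO stock) for 16 h at 37C. CCF4-AM substrate added 2 h at room temperature; 460/530 nm emission ratio fitted upward versus DMSO.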
# [9] = TOX21_p53_BLA_p4_viability: Viability Assessment in the Tox21 HCT-116 p53 Agonism Beta-lactamase Assay, Phase 4 (AID 2283597);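 further: hits lower the luminescence signal meaning cytotoxicity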
# In short: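 Following a 16 h exposure at 37C, the treated HCT116 wells were first read for the FRET ratio. They were then lysed with CellTiter-Glo, and ATP luminescence was recorded after 30 min at room temperature.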
# [10] = Tanguay_ZF_120hpf_JAW_legacy: (Legacy) Oregon State University Tanguay Lab 120 Hour Post-fertilization zebrafish Assay for Jaw Malformation (AID 2283638);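 on AC50: active means more embryos with jaw malformation than DMSO controls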
# In short: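 Binary jaw-malformation call at 120 hpf by brightfield microscopy. Embryos (Tropical 5D strain, chorion removed at 4 hpf) were dosed statically at 6 hpf, one per well, at 28C with 0.64% DMSO. Embryos that died were not scored.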
# [11] = Tanguay_ZF_120hpf_EYE_legacy: (Legacy) Oregon State University Tanguay Lab 120 Hour Post-fertilization zebrafish Assay for Eye Malformation (AID 2283636);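 further: binary presence or absence of eye malformation scored by brightfield in 120 hpf larvae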
# In short: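 Dechorionated Tropical 5D zebrafish embryos, one per well from 6 hpf, static exposure to 120 hpf at 28C, 0.64% DMSO. Eye malformation scored present/absent by brightfield; dead embryos not scored.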
# [12] = Tanguay_ZF_120hpf_AXIS_legacy: (Legacy) Oregon State University Tanguay Lab 120 Hour Post-fertilization zebrafish Assay for Body Axis Malformation (AID 2283635);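 further: potency for an increased fraction of larvae scored with body axis malformation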
# In short: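 Binary scoring of axis defects at 120 hpf under brightfield, fitted positive versus DMSO. Tropical 5D embryos, chorion removed by pronase at 4 hpf, were singly exposed in sealed, dark plates at 28C from 6 hpf; DMSO 0.64% final.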
# [13] = Tanguay_ZF_120hpf_SNOU_legacy: (Legacy) Oregon State University Tanguay Lab 120 Hour Post-fertilization zebrafish Assay for Snout Malformation (AID 2283637)
# In short: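 Dechorionated tropical 5D wild-type zebrafish embryos exposed statically from 6 to 120 hpf at 28C, one per well, in 0.64% DMSO. Snout malformation scored as present/absent by brightfield at 120 hpf; dead embryos not scored.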
smiles,measurement,setting,value
C1CNCCN1,AC50,[1],inconclusive: 9.92 µM and inconclusive: 49.8 µM
same,AC50,[2],inconclusive: 47.2 µM and inconclusive: 107 nM
same,outcome,[2],inactive
same,AC50,[3],inconclusive: 45.8 µM
same,outcome,[3],inactive
same,AC50,[4],inconclusive: 47.2 µM
same,AC50,[5],inconclusive: 23 µM
same,AC50,[6],inconclusive: 23 µM
same,outcome,[7],inactive
same,AC50,[8],inconclusive: 45.8 µM
O=c1[nH]c2ccc(S(=O)CCN3CCC(Cc4ccc(F)cc4)CC3)cc2o1 (stereo not given),outcome,[1],inactive
same,AC50,[2],inconclusive: 46.1 µM
same,outcome,[4],inactive
same,outcome,[5],inactive
same,outcome,[9],inactive
same,outcome,[6],inactive
same,AC50,[7],inconclusive: 46.1 µM
CCCCOC(=O)[C@@H](C)Oc1ccc(Oc2ccc(C(F)(F)F)cn2)cc1,outcome,[1],inactive
same,outcome,[2],inactive
same,AC50,[3],inconclusive: 42.3 µM
same,AC50,[9],inconclusive: 3.29 µM
same,AC50,[6],inconclusive: 46.3 µM
same,outcome,[8],inactive
same,AC50,[10],inconclusive: 58.6 µM
COc1ccc(C(=O)Nc2nc3ccccc3c(NCc3ccccc3)c2C#N)cc1,AC50,[1],active: 9.26 µM and inconclusive: 19 µM
same,AC50,[2],inconclusive: 46.1 µM
same,AC50,[3],active: 60.1 µM
same,AC50,[4],inconclusive: 46.1 µM
same,AC50,[6],active: 63.1 µM
same,AC50,[7],inconclusive: 46.1 µM
same,AC50,[8],active: 72.8 µM
same,AC50,[11],inconclusive: 45.4 µM
CCCOC(=O)c1ccc(C(=O)OCCC)nc1,AC50,[1],inconclusive: 30 nM and inconclusive: 50 µM
same,outcome,[2],inactive
same,AC50,[7],inconclusive: 0.000173 µM
same,AC50,[12],active: 0.968 µM
NC(=O)Nc1ccc(Cl)cc1,AC50,[1],inconclusive: 49.8 µM
same,AC50,[2],inconclusive: 30.6 µM
same,AC50,[3],inconclusive: 45.9 µM
same,AC50,[4],inconclusive: 45.9 µM
same,AC50,[9],inconclusive: 45.9 µM
same,AC50,[6],inconclusive: 45.9 µM
same,AC50,[7],inconclusive: 45.9 µM
O=C(O)c1ccc2c(c1)C(=O)OC2=O,outcome,[1],inactive
same,AC50,[3],inconclusive: 46.7 µM
same,outcome,[3],inactive
same,AC50,[4],inconclusive: 4.4 µM
same,outcome,[9],inactive
same,AC50,[6],inconclusive: 46.1 µM and inconclusive: 46.7 µM
CCCCOC(=O)c1ccc(O)cc1,AC50,[1],inconclusive: 50 µM
same,AC50,[2],inconclusive: 10.9 µM
same,AC50,[4],inconclusive: 80 µM and inconclusive: 23 µM
same,AC50,[9],inconclusive: 46.1 µM and inconclusive: 23 µM
same,outcome,[6],inactive
same,AC50,[7],inconclusive: 23 µM
same,AC50,[11],active: 41.1 µM
same,AC50,[13],active: 24.9 µM
CCOC(=O)CC(O)(CC(=O)OCC)C(=O)OCC,AC50,[1],inconclusive: 50 µM
same,outcome,[2],inactive
same,AC50,[4],inconclusive: 46.1 µM
same,AC50,[9],inconclusive: 46.1 µM
same,AC50,[6],inconclusive: 46.1 µM
CC(=O)[C@H]1[C@H](C#N)C[C@H]2[C@@H]3CC=C4C[C@@H](O)CC[C@]4(C)[C@H]3CC[C@@]21C,AC50,[1],inconclusive: 5.24 µM
same,outcome,[2],inactive
same,AC50,[3],inconclusive: 27.6 µM
same,AC50,[4],inconclusive: 27.6 µM
same,AC50,[5],inconclusive: 50.8 µM
same,outcome,[9],inactive
same,outcome,[6],inactive
same,outcome,[7],inactive
same,outcome,[8],inactive
NCc1cccc(CN)c1,AC50,[1],inconclusive: 12.3 µM
same,AC50,[2],inconclusive: 47.2 µM
same,outcome,[2],inactive
same,AC50,[4],inconclusive: 46.1 µM and inconclusive: 0.193 nM
same,AC50,[9],inconclusive: 47.2 µM
same,AC50,[6],inconclusive: 46.1 µM and inconclusive: 47.2 µM
same,AC50,[7],inconclusive: 46.1 µM
same,outcome,[7],inactive
CC(=O)CC(C)(C)O,AC50,[1],inconclusive: 50 µM
same,AC50,[2],inconclusive: 46.1 µM
same,AC50,[4],inconclusive: 46.7 µM
same,outcome,[4],inactive
same,outcome,[5],inactive
same,AC50,[9],inconclusive: 46.1 µM and inconclusive: 46.7 µM
same,AC50,[7],inconclusive: 4.69 nM and inconclusive: 9.31 µM
same,AC50,[8],inconclusive: 46.1 µM
same,AC50,[11],inconclusive: 2.53 µM
same,outcome,[10],inactive
OCCN1CCNCC1,outcome,[1],inactive
same,AC50,[2],inconclusive: 46.8 µM and inconclusive: 45.8 nM
same,AC50,[3],inconclusive: 46.8 µM
same,AC50,[4],inconclusive: 46.8 µM and active: 82.8 µM
same,AC50,[5],inconclusive: 46.8 µM
same,AC50,[6],inconclusive: 45.7 µM
same,AC50,[7],inconclusive: 46.8 µM
same,outcome,[7],inactive
CCCCCCC(C)O (stereo not given),AC50,[1],inconclusive: 50 µM
same,AC50,[2],inconclusive: 46.9 µM
same,AC50,[9],inconclusive: 14.7 µM
same,outcome,[9],inactive
same,AC50,[7],inconclusive: 46.1 µM and inconclusive: 46.9 µM
CC(C)=CCCC(C)CCO (stereo not given),AC50,[1],active: 90.2 µM
same,outcome,[2],inactive
same,outcome,[3],inactive
same,AC50,[4],inconclusive: 47.5 µM
same,outcome,[4],inactive
same,AC50,[5],inconclusive: 46.1 µM and inconclusive: 47.5 µM
same,AC50,[9],inconclusive: 0.105 µM
same,AC50,[10],inconclusive: 102 µM
